Measurements as given in article PMC10290989.
These are yes or no findings as the source states them, for the method shown. Binding seen in cells or lysates may run through a third protein. Some entries that bind do so weakly or less than the wild type.

Target: TRIM28 full-length, ectopically expressed, Q13263
Assay: co-IP; whole G.C. cell lysates in I.P. buffer (NP-40, 50 mM Tris-HCl pH 7.4, 50 mM EDTA, 150 mM NaCl); antibody 2 h at 4 °C, protein A/G agarose beads overnight at 4 °C; five washes; immunoblot; ectopically expressed or endogenous proteins
Conditions: remark: other sources report otherwise

binding: binds
B1: TBK1, Q9UHD2 1-729 (protein)
chain: MQSTSNHLWLLSDILGQGATANVFRGRHKKTGDLFAIKVFNNISFLRPVDVQMREFEVLKKLNHKNIVKLFAIEEETTTRHKVLIMEFCPCGSLYTVLEEPSNAYGLPESEFLIVLRDVVGGMNHLRENGIVHRDIKPGNIMRVIGEDGQSVYKLTDFGAARELEDDEQFVSLYGTEEYLHPDMYERAVLRKDHQKKYGATVDLWSIGVTFYHAATGSLPFRPFEGPRRNKEVMYKIITGKPSGAISGVQKAENGPIDWSGDMPVSCSLSRGLQVLLTPVLANILEADQEKCWGFDQFFAETSDILHRMVIHVFSLQQMTAHKIYIHSYNTATIFHELVYKQTKIISSNQELIYEGRRLVLEPGRLAQHFPKTTEENPIFVVSREPLNTIGLIYEKISLPKVHPRYDLDGDASMAKAITGVVCYACRIASTLLLYQELMRKGIRWLIELIKDDYNETVHKKTEVVITLDFCIRNIEKTVKVYEKLMKINLEAAELGEISDIHTKLLRLSSSQGTIETSLQDIDSRLSPGGSLADAWAHQEGTHPKDRNVEKLQVLLNCMTEIYYQFKKDKAERRLAYNEEQIHKFDKQKLYYHATKAMTHFTDECVKKYEAFLNKSEEWIRKMLHLRKQLLSLTNQCFDIEEEVSKYQEYTNELQETLPQKMFTASSGIKHTMTPIYPSSNTLVEMTLGMKKLKEEMEGVVKELAENNHILERFGSLTMDGGLRNVDCL
